{
  "source": "patent EP1790655B1",
  "about": "“Biologically active peptides” (CMS Peptides Patent Holding Company Limited, priority 2001, dated 2003)",
  "key": {"T lymphocyte [1]": {"tested_on": "T lymphocyte", "assay": "T lymphocyte transformation test (ConA-stimulated spleen cells, MTT) after in vivo dosing of healthy mice", "parameters": "species or system BALB/c Mice", "details": "IFN-γ, IL-2 3×10^5IU/kg/day, X±SD"}, "NK cell [2]": {"tested_on": "NK cell", "assay": "NK cell cytotoxicity activity test (spleen cells against YAC-1 target cells, MTT) after in vivo dosing", "parameters": "species or system BALB/c Mice", "details": "IFN-γ, IL-2 3×10^5IU/kg/day, X±SD"}, "[3]": {"tested_on": "secretion of interleukin-2 (IL-2) by T lymphocytes", "assay": "T lymphocyte IL-2 secretion test (HT-2 cell bioassay of spleen cell supernatant)", "format": "in vivo, BALB/c Mice", "details": "IFN-γ, IL-2 3×10^5IU/kg/day, X±SD"}, "thymus gland": {"tested_on": "thymus gland", "assay": "immunity organ weight test, thymus gland", "format": "in vivo, BALB/c Mice", "details": "IFN-γ, IL-2 3×10^5IU/kg/day, X±SD"}, "[4]": {"tested_on": "Duck Hepatitis B Virus (DHBV)", "assay": "Chongqing duck hepatitis B model, serum DHBV DNA by dot-blot hybridization", "format": "in vivo, Chongqing ducks", "details": "CMS001 50µg/kg/day i.p., Lamivudine 50mg/kg/day oral, Mean ± Standard Deviation"}, "mononuclear phagocyte": {"tested_on": "mononuclear phagocyte", "assay": "phagocytotic function of mononuclear phagocyte in mice with S180 sarcoma", "format": "in vivo, BALB/c mice", "details": "started 5 days before transplanting, 30 days, transplanted S180 sarcoma"}, "[5]": {"tested_on": "Sheep red blood cells (SRBC)", "assay": "humoral immunity (SRBC hemolysis index) of mice bearing transplanted B16 melanoma", "format": "in vivo, C57BL/6 mice", "details": "30 days, SRBC on the 27th day"}, "anti-SRBC antibody": {"tested_on": "anti-SRBC antibody", "assay": "Sheep Red Blood Cell (SRBC) hemolysis test, antibody formation", "format": "in vivo, BALB/c mice", "details": "IFN-γ, IL-2 3×10^5IU/kg/day, SRBC i.p. on day 12, X±SD"}, "S180 sarcoma cells": {"tested_on": "S180 sarcoma cells", "assay": "growth of transplanted S180 sarcoma in mice", "format": "in vivo, BALB/c mice", "details": "0.5µg/kg i.p. once per day"}, "T lymphocyte [6]": {"tested_on": "T lymphocyte", "assay": "T lymphocyte transformation in mice with ascitic fluid type liver cancer H22", "format": "in vivo, BALB/c mice", "details": "0.5µg/kg i.p. once per day, 15 days after implantation of H22"}, "NK cell [7]": {"tested_on": "NK cell", "assay": "NK cell activity in mice with ascitic fluid type liver cancer H22", "format": "in vivo, BALB/c mice", "details": "50µg/kg i.p. once per day, 15 days after implantation of H22"}, "[8]": {"details": "peptide 5µg/kg/day i.p. once per day for 15 days"}, "[9]": {"details": "peptide 50µg/kg/day i.p. once per day for 15 days"}, "[10]": {"details": "peptide 500µg/kg/day i.p. once per day for 15 days"}, "[11]": {"details": "peptide 0.5µg/kg/day i.p. once per day for 15 days"}},
  "note": "At least one peptide structure holds a part that was inferred or is arguable (an end, a ring closure or a residue). Marks after values point to notes of the source that are not given here. Residues, ends and D or L forms follow the SMILES beside them.",
  "data": [
    {"smiles": "C[C@@H](O)[C@H](NC(=O)[C@H](CCCCN)NC(=O)[C@@H](NC(=O)[C@@H](NC(=O)[C@@H]1CCCN1)[C@@H](C)O)[C@@H](C)O)C(=O)N[C@@H](Cc1ccc(O)cc1)C(=O)N[C@@H](Cc1ccccc1)C(=O)N1CCC[C@H]1C(=O)N[C@@H](Cc1c[nH]cn1)C(=O)N[C@@H](Cc1ccccc1)C(=O)O", "note": "[CMS001] (H-PTTKTYFPHF-OH)", "values": [
      {"measurement": "stimulation index (T lymphocyte transformation)", "setting": "T lymphocyte [1]; [8]", "value": "1.7±0.2"},
      {"measurement": "stimulation index (T lymphocyte transformation)", "setting": "T lymphocyte [1]; [9]", "value": "2.2±0.5*^@^"},
      {"measurement": "NK cell activity index", "setting": "NK cell [2]; [9]", "value": "85±10", "unit": "%"},
      {"measurement": "Sample IL-2 activity (T lymphocyte secreting IL-2)", "setting": "[3]; [9]", "value": "60±10", "unit": "IU"},
      {"measurement": "Thymus gland index (thymus weight/body weight)", "setting": "thymus gland; [8]", "value": "0.22±0.05", "unit": "%"},
      {"measurement": "DHBV DNA level (serum)", "setting": "[4]; Day 0 (before treatment)", "value": "21±18 10^3 units"},
      {"measurement": "DHBV DNA level (serum)", "setting": "[4]; Day 7 of treatment", "value": "11±13 10^3 units"},
      {"measurement": "DHBV DNA level (serum)", "setting": "[4]; Day 14 of treatment", "value": "20±18 10^3 units"},
      {"measurement": "DHBV DNA level (serum)", "setting": "[4]; Day 21 of treatment", "value": "14±14 10^3 units"},
      {"measurement": "DHBV DNA level (serum)", "setting": "[4]; Day 28 (end of 4 weeks treatment)", "value": "5±3* 10^3 units"},
      {"measurement": "DHBV DNA level (serum)", "setting": "[4]; Day 35 (one week after termination of treatment)", "value": "18±16 10^3 units"},
      {"measurement": "Phagocytosis index", "setting": "mononuclear phagocyte; 5µg/kg i.p. once per day", "value": "6.67±0.43*^"},
      {"measurement": "Phagocytosis index", "setting": "mononuclear phagocyte; 50µg/kg i.p. once per day", "value": "6.24±0.33*^"},
      {"measurement": "Hemolysis index", "setting": "[5]; 0.5µg/kg i.p. once per day", "value": "51.0±16.2*^$"},
      {"measurement": "Hemolysis index", "setting": "[5]; 5µg/kg i.p. once per day", "value": "41.3±17.7*^$"},
      {"measurement": "Hemolysis index", "setting": "[5]; 50µg/kg i.p. once per day", "value": "45.0±31.9*^$"},
      {"measurement": "Hemolysis index", "setting": "[5]; 500µg/kg i.p. once per day", "value": "36.0±10.2*^$"}
    ]},
    {"smiles": "NC(=O)C[C@H](NC(=O)[C@H](CCC(=O)O)NC(=O)[C@@H]1CCCN1)C(=O)N[C@@H](Cc1ccccc1)C(=O)O", "note": "[CMS034, Pro Glu Asn Phe] (H-PENF-OH)", "values": [
      {"measurement": "stimulation index (T lymphocyte transformation)", "setting": "T lymphocyte [1]; [8]", "value": "1.5±0.2"},
      {"measurement": "NK cell activity index", "setting": "NK cell [2]; [8]", "value": "90±5", "unit": "%"},
      {"measurement": "NK cell activity index", "setting": "NK cell [2]; [10]", "value": "85±9", "unit": "%"},
      {"measurement": "Sample IL-2 activity (T lymphocyte secreting IL-2)", "setting": "[3]; [11]", "value": "85±10*^ IU"},
      {"measurement": "Sample serum index (anti-SRBC antibody formation)", "setting": "anti-SRBC antibody; [11]", "value": "20±2", "unit": "Unit"},
      {"measurement": "Sample serum index (anti-SRBC antibody formation)", "setting": "anti-SRBC antibody; [8]", "value": "172±37*^@^ Unit"},
      {"measurement": "Sample serum index (anti-SRBC antibody formation)", "setting": "anti-SRBC antibody; [9]", "value": "136±11*^@^ Unit"},
      {"measurement": "Thymus gland index (thymus weight/body weight)", "setting": "thymus gland; [8]", "value": "0.27±0.06*^@^ %"},
      {"measurement": "Thymus gland index (thymus weight/body weight)", "setting": "thymus gland; [9]", "value": "0.19±0.04*^ %"},
      {"measurement": "Thymus gland index (thymus weight/body weight)", "setting": "thymus gland; [10]", "value": "0.20±0.05*^ %"},
      {"measurement": "Phagocytosis index", "setting": "mononuclear phagocyte; 0.5µg/kg i.p. once per day", "value": "6.35±1.02"},
      {"measurement": "Phagocytosis index", "setting": "mononuclear phagocyte; 5µg/kg i.p. once per day", "value": "6.20±0.44*^"},
      {"measurement": "Tumor weight", "setting": "S180 sarcoma cells; started 5 days before transplanting, 30 days", "value": "0.83 ± 0.48", "unit": "g"},
      {"measurement": "Tumor inhibition index", "setting": "S180 sarcoma cells; versus saline group", "value": 35.9, "unit": "%"},
      {"measurement": "Stimulation index", "setting": "T lymphocyte [6]", "value": "1.37±0.10*^$"},
      {"measurement": "NK activity index", "setting": "NK cell [7]", "value": "57.3±17.9*^^$& %"},
      {"measurement": "Hemolysis index", "setting": "[5]; 0.5µg/kg i.p. once per day", "value": "50.8±18.4*^$"},
      {"measurement": "Hemolysis index", "setting": "[5]; 5µg/kg i.p. once per day", "value": "43.0±11.7*^$"},
      {"measurement": "Hemolysis index", "setting": "[5]; 50µg/kg i.p. once per day", "value": "30.2±10.9"}
    ]}
  ]
}
